The results in this text go back to patent US20060147420A1 (University of Texas, published 2006).

Protein sequences, listed by entry. Tags and fused reporters are not part of them. Residues count along the entry.
UniProt Q02763, residues 23-1124: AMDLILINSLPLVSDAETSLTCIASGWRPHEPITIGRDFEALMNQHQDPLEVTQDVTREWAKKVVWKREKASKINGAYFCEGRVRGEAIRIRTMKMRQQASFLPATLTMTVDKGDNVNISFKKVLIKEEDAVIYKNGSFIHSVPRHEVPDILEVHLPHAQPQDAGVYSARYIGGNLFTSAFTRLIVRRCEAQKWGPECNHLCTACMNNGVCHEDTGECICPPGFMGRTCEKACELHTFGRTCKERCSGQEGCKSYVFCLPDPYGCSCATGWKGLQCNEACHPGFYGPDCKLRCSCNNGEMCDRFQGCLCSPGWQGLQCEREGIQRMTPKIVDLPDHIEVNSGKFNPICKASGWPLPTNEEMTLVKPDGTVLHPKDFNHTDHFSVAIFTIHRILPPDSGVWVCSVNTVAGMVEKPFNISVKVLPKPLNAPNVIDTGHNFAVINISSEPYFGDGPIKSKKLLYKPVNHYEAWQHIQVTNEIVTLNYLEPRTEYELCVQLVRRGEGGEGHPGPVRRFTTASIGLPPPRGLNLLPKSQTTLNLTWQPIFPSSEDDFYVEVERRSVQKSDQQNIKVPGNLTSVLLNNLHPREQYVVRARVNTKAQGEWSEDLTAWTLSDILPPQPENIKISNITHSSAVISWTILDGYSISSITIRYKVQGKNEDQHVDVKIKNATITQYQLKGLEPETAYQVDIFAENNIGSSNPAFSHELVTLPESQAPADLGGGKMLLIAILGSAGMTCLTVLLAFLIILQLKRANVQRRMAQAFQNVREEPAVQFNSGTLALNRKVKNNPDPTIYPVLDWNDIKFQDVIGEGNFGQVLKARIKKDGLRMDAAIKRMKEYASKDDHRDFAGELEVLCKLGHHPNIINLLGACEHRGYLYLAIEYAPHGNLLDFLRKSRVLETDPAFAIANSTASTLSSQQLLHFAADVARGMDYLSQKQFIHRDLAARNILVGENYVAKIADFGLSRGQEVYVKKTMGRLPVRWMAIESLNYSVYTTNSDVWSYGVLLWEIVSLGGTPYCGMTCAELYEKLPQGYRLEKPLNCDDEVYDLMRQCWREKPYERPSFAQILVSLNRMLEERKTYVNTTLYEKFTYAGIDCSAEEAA

No constants are given. Whether binding was seen depends on the method and setting. Some binding calls cover weakened binding; strength is not graded here.

This test has as its target Tie2 receptor (on or in glioma and endothelial cells) (human) (UniProt Q02763). Kind of test: flow cytometry with FAM-labelled peptide on the U-251 MG isogenic system and A172 cells.

For the molecule NLLMAAS (N-terminal aminohexanoic acid labeled by coupling 5(6)-carboxyfluorescein) [NLLMAAS (T4) peptide linked to FAM], the binding entry was “binds”.
